Laboratory results published in patent EP4786495A1.

Target: human BDCA2 on the HEK293/hBDCA2/FcεRIγ cell line (human)
Assay: flow cytometry on HEK293/hBDCA2/FcεRIγ cells

B1: anti-BDCA2 chimeric antibody 37F2C6 (antibody, human IgG1, kappa, V domains shown)
VH: QVLLQQSGPELVRPGVSVKVSCKGSGYTFTDFAVHWVKQSQTKSLEWIGLIGTSSGSTNYNQKFKDKATMTVDKSSNTAYLELARLTSEDSAIYYCARNGYYVGYYALDYWGQGTSVTVSS
VL: QTVLTQSPAIMSASPGEKVTITCSASSSVSYMYWFQQKPGTSPKLWIYSTSNLASGVPPRFSGSGSGTSYSLTISRMEAEDAATYYCQQRRNYPHTFGGGTKLEIKR
B1 was tested, and the binding was “binds”.

Results are given in words; binding and its absence hold for the method and conditions named. Binding calls can cover weak binding; strength is not graded here.
